Measurements from article PMC9586327.
No constants are given. Whether binding was seen depends on the method and setting. Some entries that bind do so weakly or less than the wild type.

Sequences of proteins named here, by UniProt entry; tags and fusion partners are left off.
UniProt Q9NR12: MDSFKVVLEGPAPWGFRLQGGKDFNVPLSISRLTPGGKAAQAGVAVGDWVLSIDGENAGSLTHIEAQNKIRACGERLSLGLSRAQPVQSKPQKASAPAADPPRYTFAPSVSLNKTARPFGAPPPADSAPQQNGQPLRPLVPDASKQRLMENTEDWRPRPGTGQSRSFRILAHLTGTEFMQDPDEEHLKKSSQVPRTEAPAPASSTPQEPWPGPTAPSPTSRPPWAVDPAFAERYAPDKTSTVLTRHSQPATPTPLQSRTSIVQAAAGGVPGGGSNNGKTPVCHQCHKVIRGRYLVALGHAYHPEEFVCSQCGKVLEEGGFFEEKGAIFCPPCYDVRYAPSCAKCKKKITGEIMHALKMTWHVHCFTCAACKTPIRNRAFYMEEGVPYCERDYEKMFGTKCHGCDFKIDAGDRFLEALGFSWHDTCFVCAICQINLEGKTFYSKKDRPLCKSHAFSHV
UniProt Q6RHR9: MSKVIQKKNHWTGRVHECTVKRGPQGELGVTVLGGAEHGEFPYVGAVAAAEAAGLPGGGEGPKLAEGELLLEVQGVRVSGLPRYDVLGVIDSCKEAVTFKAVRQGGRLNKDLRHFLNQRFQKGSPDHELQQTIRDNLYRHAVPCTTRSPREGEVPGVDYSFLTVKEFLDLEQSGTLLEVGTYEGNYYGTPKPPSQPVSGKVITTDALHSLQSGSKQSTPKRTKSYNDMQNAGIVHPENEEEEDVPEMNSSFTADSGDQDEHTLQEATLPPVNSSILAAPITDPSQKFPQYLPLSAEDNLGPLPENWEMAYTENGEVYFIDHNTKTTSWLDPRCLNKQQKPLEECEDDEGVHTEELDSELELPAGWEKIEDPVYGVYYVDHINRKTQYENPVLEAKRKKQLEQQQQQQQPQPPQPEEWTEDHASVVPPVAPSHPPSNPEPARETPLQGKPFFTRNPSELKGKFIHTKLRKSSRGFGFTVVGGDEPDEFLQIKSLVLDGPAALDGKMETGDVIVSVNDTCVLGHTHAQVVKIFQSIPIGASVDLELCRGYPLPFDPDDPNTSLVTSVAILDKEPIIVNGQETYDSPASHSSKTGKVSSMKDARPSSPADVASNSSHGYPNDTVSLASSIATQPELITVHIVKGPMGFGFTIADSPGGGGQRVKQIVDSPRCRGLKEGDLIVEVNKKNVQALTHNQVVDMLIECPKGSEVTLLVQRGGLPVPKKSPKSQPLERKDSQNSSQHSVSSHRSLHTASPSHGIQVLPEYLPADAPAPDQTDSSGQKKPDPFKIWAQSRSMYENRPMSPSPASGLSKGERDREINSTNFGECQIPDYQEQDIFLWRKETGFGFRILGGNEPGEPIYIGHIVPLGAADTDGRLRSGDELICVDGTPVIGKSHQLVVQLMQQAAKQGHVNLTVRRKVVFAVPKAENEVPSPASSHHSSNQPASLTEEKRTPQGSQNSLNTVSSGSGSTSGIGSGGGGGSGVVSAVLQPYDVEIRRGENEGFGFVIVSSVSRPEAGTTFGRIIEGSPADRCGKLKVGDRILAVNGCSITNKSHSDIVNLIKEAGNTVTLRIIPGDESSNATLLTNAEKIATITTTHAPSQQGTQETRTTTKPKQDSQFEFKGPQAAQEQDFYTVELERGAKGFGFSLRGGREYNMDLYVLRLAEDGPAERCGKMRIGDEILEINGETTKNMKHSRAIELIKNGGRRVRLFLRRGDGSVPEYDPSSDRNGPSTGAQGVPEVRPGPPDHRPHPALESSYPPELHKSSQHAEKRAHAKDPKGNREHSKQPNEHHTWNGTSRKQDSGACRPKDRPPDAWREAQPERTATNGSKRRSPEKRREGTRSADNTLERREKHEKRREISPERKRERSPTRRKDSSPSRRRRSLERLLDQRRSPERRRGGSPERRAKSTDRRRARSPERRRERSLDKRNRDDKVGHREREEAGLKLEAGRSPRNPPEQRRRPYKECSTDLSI

Molecular target: BioID2-Pdlim7 (human) (UniProt Q9NR12)
Assay: relocalisation in cells (coexpression, fluorescence microscopy); COS-7 cells; localisation of the tagged prey expressed alone compared with coexpression with the bait; prey recruited to bait-positive internal structures

binding: binds
Substance: EGFP-Magi1 (from UniProt Q6RHR9 1-1471)
